Assay results from article PMC12113829.

Biological target: HLP_(PM19-ΔTM) fused to the Gal4 binding domain ('Candidatus Phytoplasma mali' strain PM19)
Assay: two-hybrid; library-scale screen, Matchmaker Gold; bait BD-HLP_PM19 134-428 (pGBKT7), prey normalized A. thaliana library (pGADT7); selection on aureobasidin A, alpha-galactosidase, media lacking histidine and adenine

B1: A. thaliana translocase of chloroplast 33 fused to the Gal4 activation domain (protein, UniProt O23680 1-297)
chain: MGSLVREWVGFQQFPAATQEKLIEFFGKLKQKDMNSMTVLVLGKGGVGKSSTVNSLIGEQVVRVSPFQAEGLRPVMVSRTMGGFTINIIDTPGLVEAGYVNHQALELIKGFLVNRTIDVLLYVDRLDVYRVDELDKQVVIAITQTFGKEIWCKTLLVLTHAQFSPPDELSYETFSSKRSDSLLKTIRAGSKMRKQEFEDSAIAVVYAENSGRCSKNDKDEKALPNGEAWIPNLVKAITDVATNQRKAIHVDKKMVDGSYSDDKGKKLIPLIIGAQYLIVKMIQGAIRNDIKTSGKPL
- binding: binds

These are yes or no findings as the source states them, for the method shown. Binding calls can cover weak binding; strength is not graded here. Where a sequence is shown, tags or fusion partners need not be part of it.
